Results taken from patent publication US20170129921A1.
These are yes or no findings as the source states them, for the method shown. Some results given as binding are weak or reduced against the parent protein; the word gives no strength.

By UniProt entry, the sequences of proteins in these tests, tags left out.
UniProt P21730: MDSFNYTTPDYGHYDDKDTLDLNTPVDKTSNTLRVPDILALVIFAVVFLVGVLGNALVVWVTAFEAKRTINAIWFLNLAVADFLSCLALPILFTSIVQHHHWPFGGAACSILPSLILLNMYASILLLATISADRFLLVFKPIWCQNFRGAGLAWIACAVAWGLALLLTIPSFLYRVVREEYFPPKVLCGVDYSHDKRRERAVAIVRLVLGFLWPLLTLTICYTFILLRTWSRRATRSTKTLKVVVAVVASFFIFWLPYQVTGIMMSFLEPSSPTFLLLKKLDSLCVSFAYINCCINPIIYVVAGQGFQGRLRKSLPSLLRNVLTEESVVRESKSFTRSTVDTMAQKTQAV

Target: C5a receptor 1 (human) (UniProt P21730)
Experiment: 125I-C5a displacement on C5aR1 membranes

Row | binding | Binder
1 | binds | LIRLWR (acetylated N-terminus (Ac-); C-terminus unblocked (-OH)) [Peptide P59, Ac-LIRLWR-OH]
2 | binds | RHYPYWR (acetylated N-terminus (Ac-); C-terminus unblocked (-OH)) [Peptide P32, Ac-RHYPYWR-OH]
